Source: PMC10891346
No constants are given. Whether binding was seen depends on the method and setting. Binding seen in cells or lysates may run through a third protein. Some entries that bind do so weakly or less than the wild type. Tags and fused reporters may be left off the sequences shown. Values belong to the molecule of their own block, whether it stands above or below them.

By UniProt entry, the sequences of proteins in these tests, tags left out.
UniProt P01375: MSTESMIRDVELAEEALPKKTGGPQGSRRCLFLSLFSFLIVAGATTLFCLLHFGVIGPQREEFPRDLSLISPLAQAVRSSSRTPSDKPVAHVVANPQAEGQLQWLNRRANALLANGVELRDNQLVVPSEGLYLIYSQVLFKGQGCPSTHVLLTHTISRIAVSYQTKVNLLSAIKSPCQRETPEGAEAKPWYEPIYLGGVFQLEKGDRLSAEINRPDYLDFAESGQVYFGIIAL

Experiments:
[1] = target: T1, FLAG sequence-tagged Syx6 (FL-Syx6) (human) (UniProt O43752); assay: co-IP
T1 sequence: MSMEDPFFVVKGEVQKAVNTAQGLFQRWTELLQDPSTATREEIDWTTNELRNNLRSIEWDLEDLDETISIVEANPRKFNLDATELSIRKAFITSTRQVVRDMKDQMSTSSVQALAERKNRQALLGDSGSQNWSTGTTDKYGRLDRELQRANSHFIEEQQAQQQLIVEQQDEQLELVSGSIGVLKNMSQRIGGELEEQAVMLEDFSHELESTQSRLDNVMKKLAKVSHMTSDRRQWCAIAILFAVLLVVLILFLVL

[2] = target: T1, FLAG sequence-tagged Syx6 (FL-Syx6) (human); assay: co-IP; immunoisolation of the membrane-bound fraction (no detergent) of cotransfected 293T cells after sonication and equilibrium flotation centrifugation, with anti-FLAG or anti-HA mAb; western blotting
[3] = target: T2, FLAG-tagged R-SNARE (FL-VAMP4) (UniProt O75379); assay: co-IP; FL-VAMP4 coexpressed together with Myc-Syx16, Myc-Vti1a and Myc-Syx6 in 293T cells; anti-FLAG immunoprecipitation; high stringent wash conditions (>1% TritonX-100)
T2 sequence: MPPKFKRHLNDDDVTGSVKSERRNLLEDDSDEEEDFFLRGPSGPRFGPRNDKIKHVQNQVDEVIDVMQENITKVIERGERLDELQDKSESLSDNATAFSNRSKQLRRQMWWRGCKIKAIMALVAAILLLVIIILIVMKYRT

[4] = target: HA sequence-tagged TNFα (HA-TNFα) (UniProt P01375); assay: co-IP
[5] = target: HA sequence-tagged TNFα (HA-TNFα) (UniProt P01375); assay: pull-down; FLAG and HA tag pulldown: HA-TNFα immunoprecipitated on anti-HA mAb/protein G-sepharose beads and incubated with 293T lysates expressing FLAG-tagged Syx6 fragments; reversely FLAG-tagged Syx6 fragments on anti-FLAG mAb-immobilized beads incubated with lysate expressing HA-TNFα; only the target purified
[6] = target: HA sequence-tagged TNFα (HA-TNFα) (UniProt P01375); assay: co-IP; immunoisolation of the membrane-bound fraction (no detergent) of cotransfected 293T cells after sonication and equilibrium flotation centrifugation, with anti-FLAG or anti-HA mAb; western blotting
[7] = target: HA sequence-tagged TNFα (HA-TNFα) (UniProt P01375); assay: co-IP; 293T cells cotransfected with the two tagged constructs; lysis buffer 50 mM HEPES pH 7.4, 150 mM NaCl, 1.5 mM MgCl2, 1 mM EGTA, 1% Triton X-100, 10% glycerol, 1 mM DTT; immunoprecipitation with anti-FLAG or anti-HA mAb and protein G-sepharose; western blotting

B2: FLAG sequence-tagged Syx6 (FL-Syx6) (protein, UniProt O43752 1-255)
chain: MSMEDPFFVVKGEVQKAVNTAQGLFQRWTELLQDPSTATREEIDWTTNELRNNLRSIEWDLEDLDETISIVEANPRKFNLDATELSIRKAFITSTRQVVRDMKDQMSTSSVQALAERKNRQALLGDSGSQNWSTGTTDKYGRLDRELQRANSHFIEEQQAQQQLIVEQQDEQLELVSGSIGVLKNMSQRIGGELEEQAVMLEDFSHELESTQSRLDNVMKKLAKVSHMTSDRRQWCAIAILFAVLLVVLILFLVL
- binding [4]: binds
- binding [5]: binds
- binding [6]: binds

B4: FLAG-tagged C-terminal domain of Syx6 (FL-Syx6C) (domain or fragment, UniProt O43752 117-255)
chain: RKNRQALLGDSGSQNWSTGTTDKYGRLDRELQRANSHFIEEQQAQQQLIVEQQDEQLELVSGSIGVLKNMSQRIGGELEEQAVMLEDFSHELESTQSRLDNVMKKLAKVSHMTSDRRQWCAIAILFAVLLVVLILFLVL
- binding [5]: binds
- binding [7]: binds

Results, then the molecule that gave them:

- binding [1]: binds
- binding [2]: binds
Molecule: HA sequence-tagged TNFα (HA-TNFα) (from UniProt P01375 1-233)

- binding [3]: binds
B1: Syntaxin6 tagged with the Myc sequence at the N-terminus (Myc-Syx6) (protein, UniProt O43752 1-255)
chain: MSMEDPFFVVKGEVQKAVNTAQGLFQRWTELLQDPSTATREEIDWTTNELRNNLRSIEWDLEDLDETISIVEANPRKFNLDATELSIRKAFITSTRQVVRDMKDQMSTSSVQALAERKNRQALLGDSGSQNWSTGTTDKYGRLDRELQRANSHFIEEQQAQQQLIVEQQDEQLELVSGSIGVLKNMSQRIGGELEEQAVMLEDFSHELESTQSRLDNVMKKLAKVSHMTSDRRQWCAIAILFAVLLVVLILFLVL

- binding [3]: binds
B3: Myc-tagged Vti1a (Qb-SNARE) (protein, UniProt Q96AJ9 1-217)
chain: MSSDFEGYEQDFAVLTAEITSKIARVPRLPPDEKKQMVANVEKQLEEAKELLEQMDLEVREIPPQSRGMYSNRMRSYKQEMGKLETDFKRSRIAYSDEVRNELLGDDGNSSENQRAHLLDNTERLERSSRRLEAGYQIAVETEQIGQEMLENLSHDREKIQRARERLRETDANLGKSSRILTGMLRRIIQNRILLVILGIIVVITILMAITFSVRRH
